# The other results are listed elsewhere or left out.
# Target: T1, OsSMF1 (Oryza sativa, UniProt Q6ZLB0 1-436)
# T1 sequence: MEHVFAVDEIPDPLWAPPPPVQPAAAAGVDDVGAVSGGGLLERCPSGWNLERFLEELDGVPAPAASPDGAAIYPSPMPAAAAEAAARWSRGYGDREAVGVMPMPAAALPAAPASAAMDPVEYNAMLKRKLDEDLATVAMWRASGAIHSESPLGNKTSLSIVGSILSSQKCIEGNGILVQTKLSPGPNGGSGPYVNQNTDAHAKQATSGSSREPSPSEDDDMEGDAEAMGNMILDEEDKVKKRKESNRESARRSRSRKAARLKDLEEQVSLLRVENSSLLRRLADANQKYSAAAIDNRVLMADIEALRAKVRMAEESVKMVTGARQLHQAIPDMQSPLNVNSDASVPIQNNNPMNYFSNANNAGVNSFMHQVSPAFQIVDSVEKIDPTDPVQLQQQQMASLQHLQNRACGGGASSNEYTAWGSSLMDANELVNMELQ
# Assay: protein-binding microarray (RPBM); PBS, 2% BSA, 51.3 ng/ul salmon testes DNA, 50 uM zinc acetate, 200 nM TF, 25 C, 1 h; high values mean tight binding
# Conditions: protein: recombinant; tags: N-terminal polyhistidine and DsRed monomer fusion (pET32a); chain copies: 2; label: CyDye5-dUTP incorporated in the synthesized complementary strand; 3' TTTTT single-stranded linker to array surface; dsDNA, one strand shown
# Outline: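 Binding signal is reported as fluorescence intensity per feature (arbitrary units) from an Axon 4000B scanner. Incubation used 200 nM of each Ni–NTA-purified, N-terminally polyhistidine- and DsRed-fused transcription factor from E. coli BL21-CodonPlus on a double-stranded custom Agilent array for 1 h at 25 °C, with 50 µM zinc acetate in the buffer, followed by washing.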
row,Sequence,binding signal
1,CGCCTGATACCTGGTAAGTATCGGCCGATACCCCGTTTGGCGGAGTCACCTAGTGCAG,3380 fluorescence intensity (a.u.)
2,AAACACACTGACACGCATTCGGCCCGTTCCCTCGATGCGTCGGAGTCACCTAGTGCAG,5340 fluorescence intensity (a.u.)
3,TTGATATTTTCCTACCTTCAGCGGGATAAACAATAGAGAACGGAGTCACCTAGTGCAG,25300 fluorescence intensity (a.u.)
4,GCGACGCCAACGAGGCCAATACCGGAAATAACACGCGCCCCGGAGTCACCTAGTGCAG,3390 fluorescence intensity (a.u.)
5,GGACGGTACATATCCGACGATGAAAACCAAACCAACCGTGCGGAGTCACCTAGTGCAG,3380 fluorescence intensity (a.u.)
6,AGCAACTCTTTTGACGTGGACAAATACAAACACGCGTCCACGGAGTCACCTAGTGCAG,8100 fluorescence intensity (a.u.)
7,ATCATCTAGTTAAGACTGTTTGTATGCAACTATGCATGTACGGAGTCACCTAGTGCAG,31400 fluorescence intensity (a.u.)
8,TCGTCGTCGTCGTCGTCGTCGTCCTCGGCTAATGCCGCCTCGGAGTCACCTAGTGCAG,3200 fluorescence intensity (a.u.)
9,CGCGGCGCGCGAGGGCGAGGGGCGGCGGCGGCGGCGGCGGCGGAGTCACCTAGTGCAG,5510 fluorescence intensity (a.u.)
10,AAGTCCGATTTCTGTTCGTTTTAGTAGACAGTATATATCTCGGAGTCACCTAGTGCAG,3140 fluorescence intensity (a.u.)
11,ATGGCGTGCCATTCCAGCGGTCCGGCCGCCGCGTCAGCCACGGAGTCACCTAGTGCAG,9740 fluorescence intensity (a.u.)
12,TATATATCAAATCCTGACCATGTGCGTATGTTACCCTCAACGGAGTCACCTAGTGCAG,3920 fluorescence intensity (a.u.)
13,AGGAGGAGATCAAACCTTATCCGCATCATCCACCTCCTTGCGGAGTCACCTAGTGCAG,5330 fluorescence intensity (a.u.)
14,GACACCCTATGTAATAACCGATGTGACACGTCAAAACTTTCGGAGTCACCTAGTGCAG,6510 fluorescence intensity (a.u.)
15,TTCGCTCGTGTCATCCCCGAGCTCAGCCGCCGTCGCCAGTCGGAGTCACCTAGTGCAG,27300 fluorescence intensity (a.u.)
16,GTGCGGGCGGGCGCGGGCGCGACGCGCGTGGCGCGGGTGGCGGAGTCACCTAGTGCAG,3570 fluorescence intensity (a.u.)
17,ATGGAATCGCCGCCGCGGTCGTGCTCAGATCACGCCGCCGCGGAGTCACCTAGTGCAG,4080 fluorescence intensity (a.u.)
18,ACAGATACTGCGTAGTAGTACTAGGTTAGACCAGTGGTTTCGGAGTCACCTAGTGCAG,4260 fluorescence intensity (a.u.)
19,ATTGTCTTTCCTGTACAACATGTCACCAGCATAAATGGTCCGGAGTCACCTAGTGCAG,4780 fluorescence intensity (a.u.)
20,ACCTGTTCGATGTGCTTGACCGTTTCAACGCCTAGGCCCACGGAGTCACCTAGTGCAG,33800 fluorescence intensity (a.u.)
21,TGATTCAGAAGCTTTCCTTGCCAATGTGTCAGCCTTGTCGCGGAGTCACCTAGTGCAG,6780 fluorescence intensity (a.u.)

row,Sequence,binding signal
1,AGAGGGGCAGAGAGAGAGAGTGAGTGAGAAAGAGATCAAGCGGAGTCACCTAGTGCAG,56600 fluorescence intensity (a.u.)
2,ATGCCGATGTCTTCTCGTCATTGGATGGCTATGCCCATGCCGGAGTCACCTAGTGCAG,3730 fluorescence intensity (a.u.)
3,GAGGTGCCTGCTCGTCCTCGATGACGTCTGGGATGACAACCGGAGTCACCTAGTGCAG,4030 fluorescence intensity (a.u.)
4,CACACAACGAAGAGCCAGAGACACGTGTCGACATCTGAGACGGAGTCACCTAGTGCAG,9510 fluorescence intensity (a.u.)
5,ATAACTAAAAGTTGTTATATTTTGGAACGGAGGCAGTACGCGGAGTCACCTAGTGCAG,7850 fluorescence intensity (a.u.)
6,CTCCAATGAACGAACGCAGCATTAGAATCCTTTGACACGGCGGAGTCACCTAGTGCAG,3690 fluorescence intensity (a.u.)
7,GCGTGACGGATTCGCCTGCGTCATCAACACAAAACATATGCGGAGTCACCTAGTGCAG,6750 fluorescence intensity (a.u.)
8,CAAATATTTTATCCAAAATAAACCGTTATGAAATCCGATTCGGAGTCACCTAGTGCAG,24400 fluorescence intensity (a.u.)
9,ACTCTGCCCAAAATCTCATCCTGATGATGCACTACCACACCGGAGTCACCTAGTGCAG,3830 fluorescence intensity (a.u.)
10,GCAGCAGCCGCGTCATCTTGACGTCGGCGCGGCAGCGAGCCGGAGTCACCTAGTGCAG,9260 fluorescence intensity (a.u.)
11,CCATCACCAACGTGCCCATCCGAACAAGCGTTGGCGGCAGCGGAGTCACCTAGTGCAG,24900 fluorescence intensity (a.u.)
12,CAACACGCTCGATATCATCTAGTTAAACTAACCTAGTGTGCGGAGTCACCTAGTGCAG,42700 fluorescence intensity (a.u.)
13,ACCACCGAATCCTACCCATACACGTGTCCCCAAAATCAATCGGAGTCACCTAGTGCAG,6710 fluorescence intensity (a.u.)
14,GGTCACATTCACATCGCACCCAAGTTGCGGACGTTTCAGCCGGAGTCACCTAGTGCAG,33900 fluorescence intensity (a.u.)
15,TGAATCCATCCACTAATCCATCAAATTAAATAAGTTCTTGCGGAGTCACCTAGTGCAG,28700 fluorescence intensity (a.u.)
16,CTTAGTCCCACTTCAGGTGTCACATCATTTAAACGTGAGGCGGAGTCACCTAGTGCAG,4320 fluorescence intensity (a.u.)
17,TAGCTGCGGTGCGCGCCTATTCTTGGCGCCATAATGAAGCCGGAGTCACCTAGTGCAG,3510 fluorescence intensity (a.u.)
18,GTTTTGACCCGGTTTTGGTCTACGTGGCGCTGAGTCAGCGCGGAGTCACCTAGTGCAG,29900 fluorescence intensity (a.u.)
19,GCGCTGCCACCCCGGCGCCCACGGAGGTCGACGCCAGCCACGGAGTCACCTAGTGCAG,3210 fluorescence intensity (a.u.)
20,CAGCAAGAGCAAACCTGTCGCGTCCCCATTCCAAGCCCGCCGGAGTCACCTAGTGCAG,3160 fluorescence intensity (a.u.)
21,AATGAAAGATTTCCTTTCAATGACCTCGTCAGTTAATTTTCGGAGTCACCTAGTGCAG,3650 fluorescence intensity (a.u.)

# Looked up one by one from the list above (2):
row,Sequence,binding signal
3,GAGGTGCCTGCTCGTCCTCGATGACGTCTGGGATGACAACCGGAGTCACCTAGTGCAG,4030 fluorescence intensity (a.u.)
12,CAACACGCTCGATATCATCTAGTTAAACTAACCTAGTGTGCGGAGTCACCTAGTGCAG,42700 fluorescence intensity (a.u.)
